The text below walks through data of publication PMC12848948.

Sequences of proteins named here, by UniProt entry; tags and fusion partners are left off. A change or cut given only in a name is not applied to a line headed by its entry.
UniProt P43351: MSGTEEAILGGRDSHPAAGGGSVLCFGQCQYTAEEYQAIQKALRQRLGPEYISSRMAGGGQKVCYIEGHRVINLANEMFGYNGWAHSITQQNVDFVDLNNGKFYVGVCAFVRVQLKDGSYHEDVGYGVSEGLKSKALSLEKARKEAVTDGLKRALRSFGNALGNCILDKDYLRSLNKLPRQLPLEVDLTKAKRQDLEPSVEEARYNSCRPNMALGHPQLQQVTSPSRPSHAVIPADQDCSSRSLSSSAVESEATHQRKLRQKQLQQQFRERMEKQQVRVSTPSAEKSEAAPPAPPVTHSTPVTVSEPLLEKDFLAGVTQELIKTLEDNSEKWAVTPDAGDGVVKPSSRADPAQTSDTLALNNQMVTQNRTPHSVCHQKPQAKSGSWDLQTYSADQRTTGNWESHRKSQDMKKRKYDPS

For at least one entry, the source does not settle the construct or the ends of the probe. At least one verdict rests on a figure or table, not on a statement of the authors.

Data set [1] deals with RAD51 + RAD52. In words: fluorescence microscopy (fibril formation). The following applies: 15 mM NaCl, RAD51 fibrils: 25 mM Tris-HCl pH 7.5, 100 mM salt (text truncated), recombinant protein, protein details: 6xHis, single-stranded DNA.
The target of data set [2] is RAD52 (human) (UniProt P43351). The data set is described as follows: fluorescence microscopy (recruitment to condensates). The settings on record: 2.5 uM RAD52, 15 mM NaCl, variable ssDNA ratio, RAD51 fibrils: 25 mM Tris-HCl pH 7.5, 100 mM salt (text truncated), recombinant protein, protein details: 6xHis, label: Cy3 in RAD52-ssDNA mixtures, single-stranded DNA.

As to TTTTTTTTTTTTTTTTTTTTTTTTTTTTTT [T30], in data set [1] (5 uM RAD51, 5 uM RAD52, 2.5 uM T30, 25 mM Tris-HCl pH 7.5), the binding result is listed as “binds”. With “TTTTTTTTTTTTTTTTTTTTTTTTTTTTTTTTTTTTTTTT [dT40]”, the binding result in data set [1] (5 uM RAD51, 5 uM RAD52, 2.5 uM dT40, no crowder, label: Cy3 in RAD52-ssDNA mixtures) is on record as “binds”; in data set [2] it was “binds”.
